# Literature values as cited in patent US12379386B2, “Antibodies to 25-hydroxyvitamin D2 and D3 for detecting total 25-hydroxyvitamin D” (Siemens Healthcare Diagnostics Inc., priority 2011, dated 2025).
# Some entries share one result that the patent states for a list of compounds. For at least one compound, name, drawing or mass did not settle the structure.
# Conditions: in plasma; majority bound to DBP; cited from earlier work
structure (smiles),measurement,value
"C=C1CC[C@H](O)C/C1=C/C=C1\CCC[C@]2(C)[C@@H]([C@H](C)CCCC(C)(C)O)CC[C@@H]12 [25-(OH)-Vit D3, 25-hydroxyvitamin D3]",free form,less than 0.05%
